Reference: the supplement of paper PMC8728848
This is one part of the list.

How the values were obtained:
Assay in all cases: glycan array binding signal (z-score within array); higher = stronger binding
Settings in all cases: glycan notation: IUPAC condensed, linker removed
[1] = molecular target: Man(a1-2)Man(a1-3)[Man(a1-2)Man(a1-6)]Man(a1-6)[Man(a1-2)Man(a1-2)Man(a1-3)]Man
How it was run: (§1)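 Glycan array binding is given as a within-array Z-score, which can be read as non-binding when negative. The arrays, 3228 of them, came from the Consortium for Functional Glycomics database and were retained only where the protein sequence was available. Z-scores were averaged across arrays of the same protein sequence at different concentrations or buffers and across linkers.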

[2] = molecular target: Man(a1-2)Man(a1-3)[Man(a1-2)Man(a1-6)]Man(a1-6)[Man(a1-2)Man(a1-2)Man(a1-3)]Man(b1-4)GlcNAc(b1-4)GlcNAc
How it was run: as §1

[3] = molecular target: Man(a1-2)Man(a1-3)[Man(a1-6)]Man(a1-6)[Man(a1-2)Man(a1-3)]Man(b1-4)GlcNAc(b1-4)GlcNAc
How it was run: as §1

[4] = molecular target: Man(a1-2)Man(a1-6)[Man(a1-3)]Man(a1-6)[Man(a1-2)Man(a1-2)Man(a1-3)]Man
How it was run: as §1

[5] = molecular target: Man(a1-2)Man(a1-6)[Man(a1-3)]Man(a1-6)[Man(a1-2)Man(a1-2)Man(a1-3)]Man(b1-4)GlcNAc(b1-4)GlcNAc
How it was run: as §1

[6] = molecular target: Man(a1-3)[Man(a1-6)]Man
How it was run: as §1

[7] = molecular target: Man(a1-3)[Man(a1-6)]Man(a1-6)[Man(a1-2)Man(a1-3)]Man(b1-4)GlcNAc(b1-4)GlcNAc
How it was run: as §1

[8] = molecular target: Man(a1-3)[Man(a1-6)]Man(a1-6)[Man(a1-3)]Man
How it was run: as §1

[9] = molecular target: Man(a1-3)[Man(a1-6)]Man(a1-6)[Man(a1-3)]Man(b1-4)GlcNAc(b1-4)GlcNAc
How it was run: as §1

[10] = molecular target: Man(a1-3)[Man(a1-6)]Man(b1-4)GlcNAc(b1-4)GlcNAc
How it was run: as §1

[11] = molecular target: Man(a1-3)[Man(a1-6)]Man(b1-4)GlcNAc(b1-4)[Fuc(a1-6)]GlcNAc
How it was run: as §1

[12] = molecular target: Man(a1-6)Man
How it was run: as §1

[13] = molecular target: Man(b1-4)GlcNAc
How it was run: as §1

[14] = molecular target: MurNAc(b1-4)GlcNAc
How it was run: as §1

[15] = molecular target: Neu5Ac(a2-3)Gal
How it was run: as §1

[16] = molecular target: Neu5Ac(a2-3)Gal(b1-3)GalNAc
How it was run: as §1

[17] = molecular target: Neu5Ac(a2-3)Gal(b1-3)GalNAc(b1-3)Gal(a1-4)Gal(b1-4)Glc
How it was run: as §1

[18] = molecular target: Neu5Ac(a2-3)Gal(b1-3)GalNAc(b1-4)[Neu5Ac(a2-3)]Gal(b1-4)Glc
How it was run: as §1

[19] = molecular target: Neu5Ac(a2-3)Gal(b1-3)GalNAc(b1-4)[Neu5Ac(a2-8)Neu5Ac(a2-3)]Gal(b1-4)Glc
How it was run: as §1

[20] = molecular target: Neu5Ac(a2-3)Gal(b1-3)GalNAc6S
How it was run: as §1

[21] = molecular target: Neu5Ac(a2-3)Gal(b1-3)GlcNAc
How it was run: as §1

[22] = molecular target: Neu5Ac(a2-3)Gal(b1-3)GlcNAc(b1-2)Man
How it was run: as §1

[23] = molecular target: Neu5Ac(a2-3)Gal(b1-3)GlcNAc(b1-2)Man(a1-3)[GlcNAc(b1-4)][Neu5Ac(a2-3)Gal(b1-3)GlcNAc(b1-2)Man(a1-6)]Man(b1-4)GlcNAc(b1-4)GlcNAc
How it was run: as §1

[24] = molecular target: Neu5Ac(a2-3)Gal(b1-3)GlcNAc(b1-2)Man(a1-3)[Neu5Ac(a2-3)Gal(b1-3)GlcNAc(b1-2)Man(a1-6)]Man(b1-4)GlcNAc(b1-4)GlcNAc
How it was run: as §1

[25] = molecular target: Neu5Ac(a2-3)Gal(b1-3)GlcNAc(b1-3)Gal(b1-3)GlcNAc
How it was run: as §1

[26] = molecular target: Neu5Ac(a2-3)Gal(b1-3)GlcNAc(b1-3)Gal(b1-4)GlcNAc
How it was run: as §1

[27] = molecular target: Neu5Ac(a2-3)Gal(b1-3)GlcNAc(b1-3)GalNAc
How it was run: as §1

[28] = molecular target: Neu5Ac(a2-3)Gal(b1-3)GlcNAc(b1-4)Gal(b1-4)Glc
How it was run: as §1

[29] = molecular target: Neu5Ac(a2-3)Gal(b1-3)GlcNAc(b1-6)GalNAc
How it was run: as §1

[30] = molecular target: Neu5Ac(a2-3)Gal(b1-3)GlcNAc6S
How it was run: as §1

[31] = molecular target: Neu5Ac(a2-3)Gal(b1-3)[Fuc(a1-4)]GlcNAc
How it was run: as §1

[32] = molecular target: Neu5Ac(a2-3)Gal(b1-3)[Fuc(a1-4)]GlcNAc(b1-3)Gal(b1-3)[Fuc(a1-4)]GlcNAc
How it was run: as §1

[33] = molecular target: Neu5Ac(a2-3)Gal(b1-3)[Fuc(a1-4)]GlcNAc(b1-3)Gal(b1-4)[Fuc(a1-3)]GlcNAc
How it was run: as §1

[34] = molecular target: Neu5Ac(a2-3)Gal(b1-3)[GlcNAc(b1-6)]GalNAc
How it was run: as §1

[35] = molecular target: Neu5Ac(a2-3)Gal(b1-3)[Neu5Ac(a2-6)]GalNAc
How it was run: as §1

[36] = molecular target: Neu5Ac(a2-3)Gal(b1-3)[Neu5Ac(a2-6)]GlcNAc(b1-3)[Fuc(a1-3)[Gal(b1-4)]GlcNAc(b1-6)]Gal(b1-4)Glc
How it was run: as §1

[37] = molecular target: Neu5Ac(a2-3)Gal(b1-3)]Neu5Ac(a2-3)Gal(b1-4)]GlcNAc
How it was run: as §1

[38] = molecular target: Neu5Ac(a2-3)Gal(b1-4)Glc
How it was run: as §1

[39] = molecular target: Neu5Ac(a2-3)Gal(b1-4)GlcNAc
How it was run: as §1

[40] = molecular target: Neu5Ac(a2-3)Gal(b1-4)GlcNAc(b1-2)Man
How it was run: as §1

[41] = molecular target: Neu5Ac(a2-3)Gal(b1-4)GlcNAc(b1-2)Man(a1-3)[GlcNAc(b1-4)][Neu5Ac(a2-3)Gal(b1-4)GlcNAc(b1-2)Man(a1-6)]Man(b1-4)GlcNAc(b1-4)GlcNAc
How it was run: as §1

[42] = molecular target: Neu5Ac(a2-3)Gal(b1-4)GlcNAc(b1-2)Man(a1-3)[Neu5Ac(a2-3)Gal(b1-4)GlcNAc(b1-2)Man(a1-6)]Man(b1-4)GlcNAc(b1-4)GlcNAc
How it was run: as §1

[43] = molecular target: Neu5Ac(a2-3)Gal(b1-4)GlcNAc(b1-2)Man(a1-3)[Neu5Ac(a2-3)Gal(b1-4)GlcNAc(b1-2)Man(a1-6)]Man(b1-4)GlcNAc(b1-4)[Fuc(a1-6)]GlcNAc
How it was run: as §1

[44] = molecular target: Neu5Ac(a2-3)Gal(b1-4)GlcNAc(b1-2)Man(a1-3)[Neu5Ac(a2-6)Gal(b1-4)GlcNAc(b1-2)Man(a1-6)]Man(b1-4)GlcNAc(b1-4)GlcNAc
How it was run: as §1

[45] = molecular target: Neu5Ac(a2-3)Gal(b1-4)GlcNAc(b1-2)[Neu5Ac(a2-3)Gal(b1-4)GlcNAc(b1-4)]Man(a1-3)[GlcNAc(b1-4)][Neu5Ac(a2-3)Gal(b1-4)GlcNAc(b1-2)[Neu5Ac(a2-3)Gal(b1-4)GlcNAc(b1-6)]Man(a1-6)]Man(b1-4)GlcNAc(b1-4)GlcNAc
How it was run: as §1

B1: EULS2 M3 (Oryza sativa) (protein)
chain: MVYCRANPNYAMTARNGAVVLAPANPKDEYQHWIKDMRWSTSIKDEEGYPAFALVNKATGQAIKHSLGQSHPVRLVPYNPEVMDESVLWTESRDVGNGFRCIRMVNNIYLNFDAFHGDKYHGGVRDGTDIVLWKLCEGDSLRWKIQPYYILEQKLISEEDLNSAVDHHHHHH
glycan array binding signal (z-score) [1]: -0.24
glycan array binding signal (z-score) [2]: -0.505
glycan array binding signal (z-score) [3]: -0.381
glycan array binding signal (z-score) [4]: 0.54
glycan array binding signal (z-score) [5]: 0.19
glycan array binding signal (z-score) [6]: -0.176
glycan array binding signal (z-score) [7]: -0.43
glycan array binding signal (z-score) [8]: 1.37
glycan array binding signal (z-score) [9]: 0.601
glycan array binding signal (z-score) [10]: 0.133
glycan array binding signal (z-score) [11]: 0.16
glycan array binding signal (z-score) [12]: 0.528
glycan array binding signal (z-score) [13]: 0.117
glycan array binding signal (z-score) [14]: -0.081
glycan array binding signal (z-score) [15]: -1.29
glycan array binding signal (z-score) [16]: 0.05
glycan array binding signal (z-score) [17]: 0.635
glycan array binding signal (z-score) [18]: -0.272
glycan array binding signal (z-score) [19]: -0.176
glycan array binding signal (z-score) [20]: 0.579
glycan array binding signal (z-score) [21]: -0.871
glycan array binding signal (z-score) [22]: -0.241
glycan array binding signal (z-score) [23]: 0.433
glycan array binding signal (z-score) [24]: 0.519
glycan array binding signal (z-score) [25]: -0.139
glycan array binding signal (z-score) [26]: -0.11
glycan array binding signal (z-score) [27]: -0.156
glycan array binding signal (z-score) [28]: -0.312
glycan array binding signal (z-score) [29]: -0.549
glycan array binding signal (z-score) [30]: -0.066
glycan array binding signal (z-score) [31]: -0.194
glycan array binding signal (z-score) [32]: -0.531
glycan array binding signal (z-score) [33]: -0.194
glycan array binding signal (z-score) [34]: -0.108
glycan array binding signal (z-score) [35]: -0.579
glycan array binding signal (z-score) [36]: -0.651
glycan array binding signal (z-score) [37]: -0.284
glycan array binding signal (z-score) [38]: 0.101
glycan array binding signal (z-score) [39]: -0.262
glycan array binding signal (z-score) [40]: -0.09
glycan array binding signal (z-score) [41]: -0.414
glycan array binding signal (z-score) [42]: -0.723
glycan array binding signal (z-score) [43]: -0.844
glycan array binding signal (z-score) [44]: -0.584
glycan array binding signal (z-score) [45]: -0.102
